In patent US11279689B2, “1-(3-(6-(3-hydroxynaphthalen-1-yl)benzofuran-2-yl)azetidin-1 yl)prop-2-en-1-one derivatives and similar compounds as KRAS G12C modulators for treating cancer” (Araxes Pharma LLC, priority 2017, dated 2022):
The name of at least one read-out is uncertain.

Biological target: T1, KRAS G12C 1-169, his-tagged protein, GDP-loaded (Homo sapiens, UniProt P01116, G12C)
T1 construct: KRAS G12C 1-169, his-tagged protein, GDP-loaded
Experiment: Biochemical assay: covalent binding (modification %) to KRAS G12C by mass spectrometry
Conditions: 2 hour incubation period at 10 μM or 8 μM concentration

## C=CC(=O)N1CC(n2cc(C(N)=O)c3cc(-c4cc(O)cc5ccccc45)ccc32)C1 [Compound 64, 1-(1-acryloylazetidin-3-yl)-5-(3-hydroxynaphthalen-1-yl)-1H-indole-3-carboxamide]
  Binding %: +++ (+++ indicates binding activity greater than 50%)

## C=CC(=O)N1CC(n2cc(C(N)=O)c3cc(-c4c(C)ccc5[nH]ncc45)ccc32)C1 [Compound 62, 1-(1-acryloylazetidin-3-yl)-5-(5-methyl-1H-indazol-4-yl)-1H-indole-3-carboxamide]
  Binding %: ++ (++ indicates binding activity from 10 to 50%)
